These are yes or no findings as the source states them, for the method shown. For some of these results: Binding seen in cells or lysates may run through a third protein. Some results given as binding are weak or reduced against the parent protein; the word gives no strength.
Tests used:
[1] = molecular target: mannan-binding lectin (MBL), purified (Homo sapiens (Human)) (UniProt P11226); assay: ELISA, MBL on mannan-coated wells at 4° C., detection with anti-MASP-2 antibody
[2] = molecular target: Flag-tagged full-length MASP-2 (UniProt O00187); assay: co-immunoprecipitation, immunoblot (title of FIG. 1)
[3] = molecular target: Flag-tagged full-length MASP-2 (UniProt O00187); assay: summary of the study's co-immunoprecipitation results
[4] = molecular target: Flag-tagged MASP-2 C-terminal CCP1-CCP2-SP region (UniProt O00187); assay: co-immunoprecipitation on Flag-tagged MASP-2 region beads, immunoblot

By UniProt entry, the sequences of proteins in these tests, tags left out. Where a name states a change or a piece, a line headed by the entry shows the natural chain unless it says otherwise. Chains listed by the source or under a name are the forms on record and can include a tag or linker. Residues count along the entry.
UniProt P11226: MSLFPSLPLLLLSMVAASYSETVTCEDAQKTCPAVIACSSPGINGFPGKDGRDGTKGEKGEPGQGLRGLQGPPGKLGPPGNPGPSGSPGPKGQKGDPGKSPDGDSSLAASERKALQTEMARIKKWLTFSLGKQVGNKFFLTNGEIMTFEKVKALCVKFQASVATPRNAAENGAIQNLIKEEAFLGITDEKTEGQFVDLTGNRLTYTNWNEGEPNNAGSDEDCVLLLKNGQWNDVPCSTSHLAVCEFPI
UniProt O00187: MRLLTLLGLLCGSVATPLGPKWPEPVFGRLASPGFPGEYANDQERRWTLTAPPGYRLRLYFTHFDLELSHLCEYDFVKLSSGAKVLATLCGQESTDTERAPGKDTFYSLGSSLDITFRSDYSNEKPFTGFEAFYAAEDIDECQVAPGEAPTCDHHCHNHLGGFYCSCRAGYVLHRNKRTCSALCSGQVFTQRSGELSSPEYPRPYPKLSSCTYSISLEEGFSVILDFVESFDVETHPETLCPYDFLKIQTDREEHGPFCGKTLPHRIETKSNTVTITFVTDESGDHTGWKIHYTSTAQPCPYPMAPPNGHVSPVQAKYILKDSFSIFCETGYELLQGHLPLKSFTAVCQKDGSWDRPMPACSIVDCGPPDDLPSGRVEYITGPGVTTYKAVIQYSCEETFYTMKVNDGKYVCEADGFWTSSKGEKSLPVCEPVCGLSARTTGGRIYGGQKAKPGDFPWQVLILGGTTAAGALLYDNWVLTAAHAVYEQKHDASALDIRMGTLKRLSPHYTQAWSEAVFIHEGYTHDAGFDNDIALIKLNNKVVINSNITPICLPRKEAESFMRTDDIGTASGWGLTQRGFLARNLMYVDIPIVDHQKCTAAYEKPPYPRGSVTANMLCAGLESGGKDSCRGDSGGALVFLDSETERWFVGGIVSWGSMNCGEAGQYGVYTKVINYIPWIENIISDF
Flag-tagged full-length MASP-2: residues 16-686 of O00187
Flag-tagged MASP-2 C-terminal CCP1-CCP2-SP region: residues 298-686 of O00187

Substance	binding [1]	binding [2]	binding [3]	binding [4]
purified MASP-2 (from UniProt O00187 16-686) (enzyme)	binds			
GFP-tagged SARS-CoV N protein, full length (from UniProt P59595 1-422)		binds	binds	binds

Reference: patent publication US20230158060A1
